Measured values as given in PubChem BioAssay AID504444 (National Center for Advancing Translational Sciences (NCATS), 2011).
Hit rate of the full screen: of about 360,000 compounds, about 7,500 (2.1%) were called active. Inconclusive results, whose numbers are uncertain, are shown with a selection of clear calls. The call rests on the fitted dose curve; in most records, active means well fitted inhibition curve with a large enough effect; inconclusive means small, poorly fitted or top-dose-only effect, or effect the other way; inactive means flat fitted curve, though single readings scatter. A potency beside an inconclusive call is a rough fit, not a confirmed value.

Test: Nrf2 qHTS screen for inhibitors; further: nearly all actives have a fitted effect of over 60% in size
Conditions: A549 ARE-Fluc reporter, luciferase luminescence, 18-24 h; activity change, negative = inhibition: at 46 µM (top of the series)
How it was run: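 A549 ARE_Fluc cells (5000/well, 5% FBS OPTI-MEM) pre-incubated 2 h, then treated with compounds 18-24 h at 37C/5% CO2 in concentration-response. CellTiter-Fluor viability read first; BugLite luciferase luminescence after 15 min at room temperature gives Nrf2 activity.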
On the % scale 0 is the no-effect control and ±100 the full control effect; potency means the concentration at half of the fitted maximal effect.

SMILES | Potency | activity change, negative = inhibition
CC(=O)NC(Cc1ccccc1F)C(=O)NC1CCN(c2ncccc2[N+](=O)[O-])CC1 (stereo unspecified) | inconclusive: 14.6 µM [falling, partial curve, poor fit] | –
COC(CNC(=O)c1ccc2c(c1)nc(C)n2-c1cc(C)cc(C)c1)OC | inconclusive: 16.4 µM [falling, single point] | –
CSc1ccc(Cl)c(C(=O)NNC(=O)c2cccs2)c1 | inconclusive: 29.1 µM [activator, partial curve, poor fit] | –
COc1ccc(OCC(=O)Nc2ccc(-c3nc4cc(C)cc(C)c4o3)cc2)cc1 | inconclusive: 13 µM [activator, partial curve, poor fit] | –
CCOC(=O)c1c(NC(=O)CC2SC(N)=NC2=O)sc2c1CCCC2 (stereo unspecified) | active: 1.64 µM | –
Cc1[nH]nc2c1C(c1ccc3c(c1)OCO3)C(C#N)=C(N)O2 (stereo unspecified) | – | inactive: -10.7%
CC(C)(C)NC(=O)C[C@H]1C[C@H](C(=O)N2CCCCC2)[C@@]2(CCc3ccccc3)c3[nH]c4ccc(Cl)cc4c3CCN2C1=O | inconclusive: 29.1 µM [falling, single point] | –
O=C(Nc1nnc(C2CC2)s1)c1cc2ccccc2o1 | inconclusive: 6.51 µM [activator, partial curve] | –
CCc1nnc2sc(-c3ccc(NC(=O)c4ccco4)cc3)nn12 | – | inactive: -24.5%
CN(C)c1ccc(/C=C2/C[N+](C)(C)C/C(=C/c3ccc(N(C)C)cc3)C2=O)cc1 | inconclusive: 25.9 µM [falling, single point] | –
Cc1ccc(-c2csc(N3CCC(C(N)=O)CC3)n2)cc1 | – | inactive: 9.17%
O=C(CSc1ncn[nH]1)Nc1ccc(Cl)c(Cl)c1 | inconclusive: 6.51 µM [falling, single point] | –
CC(C)(C)C(=O)Nc1ccc(C(=O)OC2CCCCC2)cc1 | inconclusive: 8.2 µM [activator, partial curve] | –
CC(C)c1c(C#N)c(N)nc(SCC(=O)c2cc3ccccc3oc2=O)c1C#N | inconclusive: 20.6 µM [falling, partial curve, poor fit] | –
CC(C)CC(CSc1ccc(Br)cc1)N1CCN(CC(C)C)CCC1=O (stereo unspecified) | – | inactive: -14.7%
N/C(Cc1cccs1)=N\OC(=O)COc1ccc(Br)cc1Cl | inconclusive: 3.66 µM [activator, full curve, poor fit] | –
CC(=O)Nc1ccc(SCC(=O)Nc2ccc(Cl)cn2)cc1 | – | inactive: -1.75%
CCCCCC(O)(c1ccc(OC)cc1)C(CN1CCOCC1)c1ccccc1 (stereo unspecified) | inconclusive: 3.66 µM [falling, partial curve, poor fit] | –
Cc1c(C#N)c(NC(=O)CCl)n(Cc2cccs2)c1C | active: 14.6 µM | –
O=C(NCCc1ccc(F)cc1)c1ccc(Cl)c(S(=O)(=O)N2CCOCC2)c1 | active: 8.2 µM | –
O=C(NCc1cccc(Cl)c1)c1c2c(nc3ccccc13)C(=O)N(C1CCCCC1)C2 | – | inactive: 26.5%
C(=N\Nc1nc(-c2ccccc2)cs1)/c1ccncc1 | inconclusive: 25.9 µM [activator, single point] | –

SMILES | Potency | activity change, negative = inhibition
O=C(NCCOc1ccccc1F)c1ccc2c(=O)n3c(nc2c1)CCC3 | inconclusive: 1.46 µM [activator, full curve] | –
NC(=O)c1ccc(-c2ncc(-c3ccccc3)o2)cc1 | inconclusive: 0.116 µM [activator, full curve] | –
c1ccc(-c2csc3ncnc(NCCCN4CCOCC4)c23)cc1 | inconclusive: 20.6 µM [falling, single point] | –
C=CCNC(=S)N/N=C/c1ccc(C(F)(F)F)cc1 | inconclusive: 29.1 µM [falling, single point] | –
CC(C)(C)OC(=O)NCCC(=O)Oc1ccc2ccc(=O)oc2c1 | – | inactive: -9.02%
COC(=O)[C@@H](NC(=O)N1CCN(c2cccc(C(F)(F)F)c2)CC1)C(C)C | inconclusive: 18.4 µM [falling, single point] | –
CN(CC(=O)N1CCN(c2cccc(Cl)c2)CC1)S(=O)(=O)c1cccs1 | inconclusive: 14.6 µM [falling, partial curve, poor fit] | –
CN(C)CCNC(=O)c1sc2nc(-c3ccccc3)cc(C(F)(F)F)c2c1N | – | inactive: -13.2%
CC1(C)OC(=O)N(c2ccccc2)C12C=Cc1c(ccc3ccccc13)O2 (stereo unspecified) | inconclusive: 23.1 µM [falling, partial curve] | –
Cc1nc(C)c(-c2ccc(SCC(=O)Nc3ccccc3)nn2)s1 | inconclusive: 20.6 µM [falling, partial curve, poor fit] | –
Cc1ccc(NC(=O)C2CCCN(S(=O)(=O)c3ccc4[nH]c(=O)ccc4c3)C2)cc1Cl (stereo unspecified) | – | inactive: -1.98%
Cc1ccc(OCC(=O)NC2=NCCS2)cc1 | inconclusive: 20.6 µM [activator, partial curve, poor fit] | –
O=C1CC(Nc2ccc(N3CCOCC3)cc2)C(=O)N1Cc1ccccc1 (stereo unspecified) | – | inactive: 4.89%
Cc1cccc(N2CCN(c3nc4nonc4nc3N3CCSCC3)CC2)n1 | inconclusive: 6.51 µM [activator, partial curve, poor fit] | –
O=C(NC1CCCCC1)N1CCCC(c2nc(-c3cccs3)no2)C1 (stereo unspecified) | inconclusive: 18.4 µM [falling, partial curve] | –
Cc1ccccc1OCCCC(=O)Nc1nccs1 | inconclusive: 29.1 µM [falling, single point] | –
C=CCSc1nc2ccccc2n1C(=O)/C=C/c1cc(OC)c(OC)c(OC)c1 | inconclusive: 29.1 µM [falling, single point] | –
Cc1ccc(NCc2n[nH]c(=S)n2-c2ccccc2)cc1 | – | inactive: 0.317%
O=C(Nc1ccc(Cl)cc1)[C@@H]1[C@@H]2C(=O)N(c3cccc(F)c3)C(=O)[C@@H]2[C@H]2C=CC=NN21 | inconclusive: 11.6 µM [activator, single point] | –
Cc1ccc2[nH]c(=O)c(CN(Cc3cccs3)Cc3nnnn3Cc3ccco3)cc2c1 | inconclusive: 29.1 µM [falling, single point] | –
COc1cccc(C(=O)N2CCN(CCCc3ccccc3)CC2)c1OC | inconclusive: 18.4 µM [falling, partial curve, poor fit] | –
CCc1nn(CC(=O)NC2CC2)c(=O)c2cc3c(OC)cccc3n12 | – | inactive: 14%

SMILES | Potency | activity change, negative = inhibition
COc1ccc(OC)c(-n2c(Cn3c(-c4ccccn4)nc4ccccc43)n[nH]c2=S)c1 | inconclusive: 29.1 µM [activator, partial curve, poor fit] | –
O=C(CCc1nc(CN2CCN(S(=O)(=O)c3ccc(Br)cc3)CC2)no1)N1CCCCC1 | inconclusive: 2.31 µM [activator, full curve, poor fit] | –
CCC(Sc1nc(N)c(NC(=O)c2ccc(OC)cc2)c(=O)[nH]1)C(=O)O (stereo unspecified) | – | inactive: 5.06%
O=C(Nc1ccncc1)C1CCN(S(=O)(=O)c2ccccc2C(F)(F)F)CC1 | inconclusive: 8.2 µM [falling, partial curve] | –
COc1cc2cc(CNc3ccccc3)c(=O)n(CC(=O)Nc3cccc(Cl)c3C)c2cc1OC | inconclusive: 3.66 µM [activator, partial curve, poor fit] | –
CC1CCC(NC(=O)C(=O)Nc2ccc3c(c2)OCO3)CC1 (stereo unspecified) | inconclusive: 2.91 µM [activator, full curve, poor fit] | –
CN(C)c1ccc(/C=C(\C#N)c2ccccc2)cc1 | inconclusive: 6.51 µM [activator, partial curve] | –
COc1cc(NC(=O)Cn2c(=O)n(CC3CCC(C(=O)NCCc4ccccc4)CC3)c(=O)c3ccccc32)cc(OC)c1 (stereo unspecified) | inconclusive: 0.092 µM [falling, full curve] | –
Cc1nc(N2CCN(Cc3ccc(Cl)cc3)CC2)c2oc3ccccc3c2n1 | inconclusive: 29.1 µM [falling, single point] | –
O=C(CSc1nnc(COc2ccc(Cl)cc2)o1)Nc1ccc(N2CCOCC2)cc1 | – | inactive: 3.21%
CC(C)Oc1ccc(/C=C/C(=O)NCC2COc3ccccc3O2)cc1 (stereo unspecified) | inconclusive: 29.1 µM [falling, single point] | –
Cc1cccc(N2CCN(C(c3ccccc3)c3nnnn3CC3CCCO3)CC2)c1C (stereo unspecified) | inconclusive: 32.6 µM [falling, partial curve, poor fit] | –
COc1cc(O)c(C(CC(=O)N2CCN(c3ccccc3)CC2)c2ccc3c(c2)OCO3)c(OC)c1 (stereo unspecified) | inconclusive: 32.6 µM [falling, single point] | –
O=C(CCl)Nc1cn(-c2ccccc2)nc1-c1ccccc1 | inconclusive: 18.4 µM [falling, single point] | –
CCc1cc2cc3c(cc2nc1SCC(=O)Nc1nnc(C)s1)OCCO3 | inconclusive: 7.31 µM [falling, partial curve, poor fit] | –
O=C(N/N=C/c1ccc2c(c1)OCO2)C(=O)Nc1cccc(Cl)c1 | inconclusive: 29.1 µM [activator, single point] | –
CCCCOc1ccc(CNC(=O)c2cccc(NC(=O)N3CCSc4ncccc43)c2)cc1 | inconclusive: 23.1 µM [falling, single point] | –
O=C(CCl)c1ccc2c(c1)CCN2C(=O)C1CCCCC1 | inconclusive: 20.6 µM [falling, partial curve, poor fit] | –
CCOC(=O)c1c(N)sc(C(=O)Nc2ccccc2)c1C | inconclusive: 1.64 µM [activator, full curve] | –
O=C(NCC1COc2ccccc2O1)C1CCCN(S(=O)(=O)c2cccc3nsnc23)C1 (stereo unspecified) | inconclusive: 10.3 µM [falling, partial curve, poor fit] | –
CCCCc1c(C)nc(Nc2ccc(OC)cc2)[nH]c1=O | – | inactive: -14.9%
CCOC(=O)C1(Cc2cccc(OC)c2)CCN(Cc2cccc3cnccc23)CC1 | inconclusive: 23.1 µM [falling, partial curve] | –

Quoted from the listing:
In Potency, CC(C)Oc1ccc(/C=C/C(=O)NCC2COc3ccccc3O2)cc1 (stereo unspecified) reads inconclusive: 29.1 µM [falling, single point]
In activity change, negative = inhibition, O=C(CSc1nnc(COc2ccc(Cl)cc2)o1)Nc1ccc(N2CCOCC2)cc1 reads inactive: 3.21%
In Potency, COc1cc(O)c(C(CC(=O)N2CCN(c3ccccc3)CC2)c2ccc3c(c2)OCO3)c(OC)c1 (stereo unspecified) reads inconclusive: 32.6 µM [falling, single point]
